Reference: US20020028208A1 (TEXAS A AND M UNIVERSITY SYSTEM, published 2002)
These are yes or no findings as the source states them, for the method shown. Some entries that bind do so weakly or less than the wild type.

Experiments:
[1] = molecular target: T1, feline CD28, surface expressed on CD28-pSI transfected COS-7 cells (feline) (UniProt O02757); experiment: cell-cell adhesion assay: calcein-labeled CD80-pSI COS-7 cells on adherent CD28-pSI COS-7 cells against mock transfected cells; microplate fluorimeter
T1 sequence: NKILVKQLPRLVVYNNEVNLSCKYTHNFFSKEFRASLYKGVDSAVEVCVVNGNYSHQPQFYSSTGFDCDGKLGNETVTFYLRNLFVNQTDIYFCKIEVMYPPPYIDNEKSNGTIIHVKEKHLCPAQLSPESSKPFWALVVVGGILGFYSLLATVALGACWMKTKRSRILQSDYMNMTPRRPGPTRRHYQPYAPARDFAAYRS

[2] = molecular target: T1, feline CD28, surface expressed on CD28-pSI transfected COS-7 cells (feline); experiment: cell-cell adhesion assay with transfected COS-7 cells; retention of fluorescently labeled cells
[3] = molecular target: T1, feline CD28, surface expressed on CD28-pSI transfected COS-7 cells (feline); experiment: cell-cell adhesion assay with transfected COS-7 cells
[4] = molecular target: T1, feline CD28, surface expressed on CD28-pSI transfected COS-7 cells (feline); experiment: cell-cell adhesion assay together with the competitive binding assay; transfected COS-7 cells

Measured: binding

B1: feline CD80 (B7-1)-TAMU, surface expressed on feCD80/pSI transfected COS-7 cells (ligand)
chain: ASLFYFCSGIIQVNKTVEEVAVLSCDYNISTKELTEIRIYWQKDDEMVLAVMSGKVQVWPKYKNRTFTDVTDNHSIVIMALRLSDNGKYTCIIQKIEKGSYKVKHLTSVMLLVRADFPVPSITDLGNPSHNIKRIMCLTSGGFPKPHLSWLENEEELNAINTTVSQDPETELYTISSELDFNMTNNHSFLCLVKYGNLLVSQIFNWQKSEPQPSNNQLWIIILSSVVSGIVVITALTLRCLVHRPAARWRQREMGRARKWKRSHLST
notes: also called CD80-pSI transfected COS cells
binds: [1] | [2] | [3] | [4]
